PubChem BioAssay AID540276 (National Center for Advancing Translational Sciences (NCATS), 2011)
The whole screen tested about 300,000 compounds, of which about 5,400 (1.8%) were called active. This list was built around the results that the source calls inconclusive (neither active nor inactive); the mix of calls is not that of the screen. Calls follow the shape of the full dose curve; tested in HEK293 cells. Where the call is inconclusive, the potency comes from a doubtful curve fit.

Assay: qHTS for inhibitors of binding or entry into cells for Marburg Virus
Conditions: Marburg virus pseudotyped entry inhibition, cell reporter; activity change, negative = inhibition: at 37.8 µM (top of the series) unless noted
% is scaled to controls: 0 for no effect and ±100 for the full control effect; potency is read from the fitted curve at half-maximal effect.

| Structure (SMILES) | Potency | activity change, negative = inhibition |
| --- | --- | --- |
| COC(=O)c1cc(C(=O)Nc2cc(C)on2)cc([N+](=O)[O-])c1 | inconclusive: 31.6 µM [inhibitor, single point] |  |
| CCN(CC)C1=NS(=O)(=O)c2cc([N+](=O)[O-])ccc21 | inconclusive: 23.1 µM [inhibitor, single point] |  |
| O=C(/C=C/c1ccc(Cl)cc1)Nc1ccc(CN2CCOCC2)cc1 | inconclusive: 20 µM [inhibitor, partial curve, poor fit] |  |
| CC(Sc1nnc2c(n1)[nH]c1ccccc12)C(=O)N(C)C1CCCCC1 (centres undefined) | inconclusive: 11.2 µM [inhibitor, partial curve, poor fit] |  |
| Cc1nc2c(sc3nc4c(cc32)COC(C)(C)C4)c(=O)n1CC(=O)NCc1ccco1 | inconclusive: 25.9 µM [inhibitor, single point] |  |
| Cc1[nH]n(-c2cccc(Cl)c2)c(=O)c1C=NCc1ccco1 | inconclusive: 3.26 µM [activator, partial curve, poor fit] |  |
| CCC(OC(=O)CCc1nc2ccccc2[nH]c1=O)C(=O)c1ccccc1 (centres undefined) | inactive |  |
| O=C(CCS(=O)(=O)c1cccc2nonc12)NCCc1ccccc1 | inconclusive: 0.073 µM [inhibitor, full curve, poor fit] |  |
| O=C(Cc1ccccc1)NCC(=O)Nc1cc(Cl)ccc1Cl | inconclusive: 7.08 µM [inhibitor, partial curve, poor fit] |  |
| C[n+]1ccccc1/C=C1\Sc2ccccc2N1CCO | inactive |  |
| CCC(=O)NCCC(c1ccco1)c1ccccc1OC (centres undefined) | inconclusive: 5.62 µM [activator, single point] |  |
| O=C(NCc1cccc(Cl)c1)c1cc(COc2ccc3ncccc3c2)on1 | inconclusive: 1.12 µM [inhibitor, partial curve, poor fit] |  |
| O=C(c1ccccc1)c1ccc(OCC(O)CNCc2ccc(F)cc2)cc1 (centres undefined) | inconclusive: 1.26 µM [activator, partial curve, poor fit] |  |
| COc1ccc(C(=O)CNc2ccc(C)cc2C)cc1 | inactive |  |
| Cc1nc(CS(=O)(=O)c2ccccc2)cc(N2CCN(c3ccccc3F)CC2)n1 | inconclusive: 3.16 µM [activator, single point] |  |
| Cc1cc2nc(-c3ccc(SCC(=O)Nc4ccc5c(c4)OCCO5)nc3)[nH]c2cc1C | inconclusive: 29.1 µM [inhibitor, single point] |  |
| CCN1CCN(c2ccc(S(=O)(=O)N3CCOCC3)cc2NC(=O)COc2ccc(F)cc2Cl)CC1 | inconclusive: 22.4 µM [inhibitor, single point] |  |
| Cc1ccc(C(=O)C(C)Oc2cccc(NC(=O)c3ccco3)c2)cc1 (centres undefined) | inactive |  |
| CCc1ccc2occ(CC(=O)Nc3c(C(=O)Nc4ccc(C)cc4)oc4ccccc34)c2c1 | inconclusive: 3.55 µM [activator, single point] |  |
| S=c1[nH]c2ccc(Cc3ccc4[nH]c(=S)[nH]c4c3)cc2[nH]1 | inconclusive: 3.55 µM [inhibitor, single point] |  |

Some values from the entries so far.
Value of COc1ccc(C(=O)CNc2ccc(C)cc2C)cc1 under Potency: inactive
Value of CCC(=O)NCCC(c1ccco1)c1ccccc1OC (centres undefined) under Potency: inconclusive: 5.62 µM [activator, single point]

(next part)

| Structure (SMILES) | Potency | activity change, negative = inhibition |
| --- | --- | --- |
| COc1ccc(CN(C(=O)/C=C/C(=O)c2ccc(OC)cc2O)C(C(=O)NC2CCCCC2)c2ccncc2)cc1 (centres undefined) | inconclusive: 0.184 µM [inhibitor, full curve, poor fit] |  |
| CCOc1ccc(C(C)(C)C)cc1S(=O)(=O)n1nc(C)cc1C | inconclusive: 6.31 µM [inhibitor, full curve, poor fit] |  |
| O=C(NN=C1CCCCCC1)NC1CCCCC1 | inactive |  |
| CCOC(=O)/C(C#N)=C\c1ccc2c(c1)OCO2 | inconclusive: 0.146 µM [inhibitor, full curve, poor fit] |  |
| Cn1c(C(=O)N(Cc2ccccc2)Cc2cccs2)cc2sccc21 | inconclusive: 14.6 µM [inhibitor, partial curve, poor fit] |  |
| Cc1ccc(-c2nnc(SCC(=O)N/N=C/c3ccc(C)s3)n2-c2ccc(C)cc2)cc1 | inconclusive: 17.8 µM [inhibitor, single point] |  |
| COc1ccccc1NS(=O)(=O)c1ccc(Cl)c(NC(=S)NC(=O)C2CCCC2)c1 | inconclusive: 0.92 µM [inhibitor, full curve, poor fit] |  |
| Cc1cc(C)c2sc(N(CCCN(C)C)C(=O)c3ccc(S(=O)(=O)N(C)C4CCCCC4)cc3)nc2c1 | inconclusive: 11.2 µM [inhibitor, partial curve, poor fit] |  |
| CC[N+](C)(CC)CCOC(=O)[C@@](O)(c1ccccc1)C1CCCCC1 | inactive |  |
| O=C(CCC(=O)OCC(=O)c1ccc(Cl)cc1)Nc1ccc(Oc2ccccc2)cc1 | inconclusive: 17.8 µM [activator, single point] |  |
| O=C(NC1CCCCC1)N1CCN(Cc2nc3ccccc3c(=O)[nH]2)CC1 | inconclusive: 0.316 µM [activator, partial curve, poor fit] |  |
| O=C(OCC(=O)N1CCCC1)c1cccs1 | inconclusive: 3.98 µM [activator, full curve, poor fit] |  |
| CC(NC(=S)NCc1ccc(F)cc1)C12CC3CC(CC(C3)C1)C2 (centres undefined) | inconclusive: 35.5 µM [inhibitor, single point] |  |
| Cc1ccc(S(=O)(=O)Cc2cc(F)c([N+](=O)[O-])cc2[N+](=O)[O-])cc1 | inconclusive: 11.2 µM [inhibitor, partial curve, poor fit] |  |
| Cc1cc(Oc2ccc(Br)cc2)nc(SCC(=O)c2ccccc2)n1 | inconclusive: 35.5 µM [inhibitor, single point] |  |
| CCN(Cc1ccccc1)C(=O)C(=O)c1cn(CC(=O)N2CCCC2)c2ccccc12 | inactive |  |
| Nc1c(C(=O)Nc2cccc(Br)c2)sc2nc3c(cc12)N1CCC3CC1 |  | inconclusive: 36% [activator] [at 46.1 µM] |
| CCc1ccc(NC(=S)N2CCC(NC(=O)c3ccccc3OC)CC2)cc1 | inconclusive: 14.1 µM [inhibitor, single point] |  |
| Cc1cccc(C(=O)NC2CCN(CC(=O)NCc3ccccc3F)CC2)c1 | inconclusive: 8.91 µM [inhibitor, partial curve] |  |
